Measurements published in patent publication US4183909A, “Phenylglycine-containing new peptides with gastrine effects and a process for the preparation thereof” (Richter Gedeon Vegyeszeti Gyar Rt., priority 1976, dated 1980).
Not every detail of the peptide structures is certain; ends, links or a residue may be inferred. Square brackets hold non-standard residues; d marks the D form. Peptide text beside a SMILES is read from it. * marks the point of attachment. Propanoyl(2R-ONHBoc) = C[C@@H](ONC(=O)OC(C)(C)C)C(=O)*; dPhg = N[C@@H](C(=O)O)c1ccccc1; Phg = N[C@H](C(=O)O)c1ccccc1

System: gastric acid secretion
Experiment: Gastric acid secretion increasing effect, administered parenterally or enterally (methods of Ghosh and Schild and of Lai, modified by Pissidis and Clark)
Format: in vivo
Protocol: The biological activities of the new compounds according to the invention were tested by the methods of Ghosh and Schild (Br. J. Pharmac. Chemoth. 13, 54 1958) and Lai (Gut 5, 327 1964), modified by Pissidis and Clark (Gut 8, 196 1967). The pharmacological tests have shown that the new compounds, when administered intravenously, increase the gastric acid secretion to a great extent. […] It is also remarkable that some of the new compounds highly increase the gastric acid secretion after resorption from the rectum.

[1] = 20 μg intestinal (text: 20 μg/100 g body weight)

SMILES	Gastric acid secretion increasing effect in comparison with that of a 0.2 μg/100 g i.v. dosage of pentagastrin [1]	Gastric acid secretion increasing effect in comparison with that of a 0.2 μg/100 g i.v. dosage of pentagastrin (20 μg rectal)	Gastric acid secretion increasing effect in comparison with that of a 0.2 μg/100 g i.v. dosage of pentagastrin (0.2 μg i.v.)
CC(C)C[C@H](NC(=O)[C@H](Cc1c[nH]c2ccccc12)NC(=O)[C@@H](C)ONC(=O)OC(C)(C)C)C(=O)N[C@@H](CC(=O)O)C(=O)N[C@H](C(N)=O)c1ccccc1 [BOC-D-OAla Leu L, 2-D-(tert.-Butoxycarbonyl-aminooxy)-propionyl-L-tryptophyl-L-leucyl-L-aspartyl-L-phenylglycine-amide] ({Propanoyl(2R-ONHBoc)}-WLD[Phg]-NH2)	48	43	–
CC(C)C[C@H](NC(=O)[C@H](Cc1c[nH]c2ccccc12)NC(=O)[C@@H](C)ONC(=O)OC(C)(C)C)C(=O)N[C@@H](CC(=O)O)C(=O)N[C@@H](C(N)=O)c1ccccc1 [BOC-D-OAla Leu D, 2-D-(tert.-Butoxycarbonyl-aminooxy)-propionyl-L-tryptophyl-L-leucyl-L-aspartyl-D-phenylglycine-amide] ({Propanoyl(2R-ONHBoc)}-WLD[dPhg]-NH2)	146	41	45
CSCC[C@H](NC(=O)[C@H](Cc1c[nH]c2ccccc12)NC(=O)[C@@H](C)ONC(=O)OC(C)(C)C)C(=O)N[C@@H](CC(=O)O)C(=O)N[C@@H](C(N)=O)c1ccccc1 [BOC-D-OAla Met D, 2-D-(tert.-Butoxycarbonyl-aminooxy)-propionyl-L-tryptophyl-L-methionyl-L-aspartyl-D-phenylglycyl-amide] ({Propanoyl(2R-ONHBoc)}-WMD[dPhg]-NH2)	–	22	36
CSCC[C@H](NC(=O)[C@H](Cc1c[nH]c2ccccc12)NC(=O)[C@@H](C)ONC(=O)OC(C)(C)C)C(=O)N[C@@H](CC(=O)O)C(=O)N[C@H](C(N)=O)c1ccccc1 [BOC-D-OAla Met L, 2-D-(tert.-Butoxycarbonyl-aminooxy)-propionyl-L-tryptophyl-L-methionyl-L-aspartyl-L-phenyl-glycineamide] ({Propanoyl(2R-ONHBoc)}-WMD[Phg]-NH2)	–	–	180
